Experimental data reported in article PMC4169428.
These are yes or no findings as the source states them, for the method shown. For some of these results: Binding seen in cells or lysates may run through a third protein. Some entries that bind do so weakly or less than the wild type. For some of these results: Sequences can lack the tags named with a protein.

Protein sequences, listed by entry. Tags and fused reporters are not part of them.
UniProt P50750: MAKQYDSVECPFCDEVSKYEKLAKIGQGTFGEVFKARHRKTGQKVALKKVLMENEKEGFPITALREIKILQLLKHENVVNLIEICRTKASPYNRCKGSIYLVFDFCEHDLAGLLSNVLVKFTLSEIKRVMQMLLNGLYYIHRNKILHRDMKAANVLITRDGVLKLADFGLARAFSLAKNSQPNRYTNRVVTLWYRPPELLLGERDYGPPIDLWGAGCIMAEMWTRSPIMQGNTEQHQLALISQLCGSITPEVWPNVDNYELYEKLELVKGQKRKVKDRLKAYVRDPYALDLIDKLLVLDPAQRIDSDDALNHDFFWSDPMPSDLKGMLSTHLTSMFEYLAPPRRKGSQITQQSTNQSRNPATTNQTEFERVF

Tests used:
[1] = target: GST-193-256 (residues 193 to 256 of HSV-1 ICP22, GST-tagged) (Herpes Simplex Virus 1 (HSV-1)) (UniProt P04485); experiment: pull-down; GST-tagged proteins immobilized on Sepharose 4B-glutathione beads, incubated with 400 µl HeLa nuclear extract at 4°C for 2 h; washes with 0.15 M and 0.3 M KCl HEGN buffer (20 mM Hepes pH 7.6, 10% glycerol, 0.2% NP-40, 0.1 mM EDTA, 1 mM DTT); beads boiled; western blot with anti-pol II and anti-CDK9; only the target purified
[2] = target: T1, GST-ICP22 (Herpes Simplex Virus 1 ICP22 protein, full length, GST-tagged) (Herpes Simplex Virus 1 (HSV-1)) (UniProt P04485); experiment: as above
T1 sequence: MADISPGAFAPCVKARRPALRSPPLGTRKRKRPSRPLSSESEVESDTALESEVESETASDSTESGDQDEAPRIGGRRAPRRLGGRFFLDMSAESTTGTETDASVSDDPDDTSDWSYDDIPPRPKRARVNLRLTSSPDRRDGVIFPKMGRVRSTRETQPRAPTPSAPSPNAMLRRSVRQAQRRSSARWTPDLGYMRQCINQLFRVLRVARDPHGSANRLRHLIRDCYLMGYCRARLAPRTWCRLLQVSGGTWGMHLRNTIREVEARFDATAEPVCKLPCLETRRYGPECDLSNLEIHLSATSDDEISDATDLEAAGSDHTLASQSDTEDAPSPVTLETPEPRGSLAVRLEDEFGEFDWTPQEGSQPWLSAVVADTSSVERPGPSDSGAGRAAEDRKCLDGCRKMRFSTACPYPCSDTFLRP

[3] = target: GST-193-256 (residues 193 to 256 of HSV-1 ICP22, GST-tagged) (Herpes Simplex Virus 1 (HSV-1)) (UniProt P04485); experiment: pull-down; GST-tagged proteins immobilized on beads, incubated with 300 ng recombinant P-TEFb in 200 µl buffer (250 mM NaCl, 50 mM Tris pH 7.5, 1% NP40, 2 mM EDTA) at 4°C for 1 h; washed 3x, eluted with 10 mM glutathione; western blot with anti-CDK9; both purified
[4] = target: T1, GST-ICP22 (Herpes Simplex Virus 1 ICP22 protein, full length, GST-tagged) (Herpes Simplex Virus 1 (HSV-1)); experiment: as above

Substance	binding [1]	binding [2]	binding [3]	binding [4]
Cyclin-dependent kinase 9 (CDK9) in HeLa nuclear extract (from UniProt P50750 1-372)	binds	binds	–	–
recombinant P-TEFb (CDK9 and truncated Cyclin T1, residues 1-266) (from UniProt P50750 1-372; O60563 1-266) (complex)	–	–	binds	binds
